Experimental findings from the supplement of paper PMC4604168 (melanoma cell lines) are described below.

Structures are written as SMILES. Some of the results follow. Many values rest on one well or one pass, so single values are uncertain.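 The apoptosis fraction was the count of cleaved-PARP antibody-stained nuclei relative to all DNA-stained nuclei, imaged in 1,536-well plates. Screening doses were set so most cells survived, and baseline and induced cleaved-PARP levels vary greatly across cell lines.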

The test system of the experiment is CBRC016 (line from a melanoma biopsy). Briefly: cleaved PARP positive nuclei fraction relative to DMSO control; melanoma cells; higher = more apoptosis. As to conditions: library dose: low library concentration; 72 h.
For `CN(NC(=O)CC(=O)NN(C)C(=S)c1ccccc1)C(=S)c1ccccc1` + CCCCCCCCCCCC1=C(O)C(=O)C=C(O)C1=O [Embelin] (first compound 0.006 µM, partner dose 1.2 µM), the “cleaved PARP positive nuclei fraction” value is 363%.

`COc1ccc2c(c1)CCC1C2CCC2(C)C(NCCCCCCN3C(=O)C=CC3=O)CCC12` (stereo unspecified) + O=c1cc(-c2cccc3c2Sc2ccccc2S3)oc(N2CCOCC2)c1 [KU55933] (first compound 0.4 µM, partner dose 1 µM): the “cleaved PARP positive nuclei fraction” value turned out to be 125%.

As for `COc1ccc2c(c1)CCC1C2CCC2(C)C(NCCCCCCN3C(=O)C=CC3=O)CCC12` (stereo unspecified) + Oc1nc(-c2ccc(C(F)(F)F)cc2)nc2c1CSCC2 [XAV939] (first compound 0.4 µM, partner dose 2 µM), the “cleaved PARP positive nuclei fraction” value was found to be 147%.

`O=C(O)c1ccc(-c2c[nH]c3ncc(-c4ccccc4)cc23)cc1C1CCCC1` + COc1ccc2c(c1)CCC1C2CCC2(C)C(NCCCCCCN3C(=O)C=CC3=O)CCC12 [U73122] (first compound 0.16 µM, partner dose 0.4 µM): the “cleaved PARP positive nuclei fraction” value was 212%.

As for `CCc1ccc(CCOc2ccc(CC3SC(=O)NC3=O)cc2)nc1` (stereo unspecified) [pioglitazone] + Oc1nc(-c2ccc(C(F)(F)F)cc2)nc2c1CSCC2 [XAV939] (first compound 2 µM, partner dose 2 µM), the “cleaved PARP positive nuclei fraction” value stood at 61.9%.

Consider `COc1cc2c(Oc3ccc4[nH]c(C)cc4c3F)ncnc2cc1OCCCN1CCCC1` [cediranib] + COc1cc2ncnc(Nc3ccc(Oc4ccccc4)cc3)c2cc1OC [SrcI1] (first compound 0.4 µM, partner dose 2 µM), for which the “cleaved PARP positive nuclei fraction” value stood at 44.8%.
